Measured values: PubChem BioAssay AID540276 (National Center for Advancing Translational Sciences (NCATS), 2011)
The whole screen tested about 300,000 compounds, of which about 5,400 (1.8%) were called active. Inconclusive results, whose numbers are uncertain, are shown with a selection of clear calls. The call rests on the fitted dose curve; tested in HEK293 cells. A potency beside an inconclusive call is a rough fit, not a confirmed value.
Potency means the concentration at half of the fitted maximal effect.

Test: qHTS for inhibitors of binding or entry into cells for Marburg Virus
Details: Marburg virus pseudotyped entry inhibition, cell reporter; series mostly up to 37.8 µM
For `CC(=O)N1N=C(c2ccco2)CC1c1ccco1` (stereo not drawn), the Potency was “inactive”.
With `Cc1c(NC(=O)c2nn3c(C(F)(F)F)cc(-c4ccccc4)nc3c2Cl)c(=O)n(-c2ccccc2)n1C` the Potency was inconclusive: 0.891 µM [activator, single point].
In the case of `CCOc1cc(N2CCOCC2)c(OCC)cc1NC(=O)CCC1CCCC1`, the Potency is reported as inconclusive: 12.6 µM [inhibitor, single point].
In the case of `CCOc1cc(N2CCOCC2)c(OCC)cc1NC(=O)c1cc(-c2ccco2)nc2ccccc12`, the Potency is reported as active: 16.4 µM.
For `O=C(NNc1ccccc1)c1ccccc1`, the Potency was inconclusive: 3.98 µM [inhibitor, partial curve, poor fit].
For `O=C1CC(c2ccc(Cl)cc2)Oc2ccc(Cl)cc21` (stereo not drawn), the Potency was “inactive”.
In the case of `Cc1ccc(-c2cc(C(=O)O)c3cc(Br)ccc3n2)s1`, the Potency is reported as “inactive”.
In the case of `Cc1noc2ncnc(Oc3cc(Cl)ccc3Cl)c12`, the Potency is reported as “inactive”.
For `CCn1c2ccccc2c2cc(/C=C(/C#N)C(N)=S)ccc21`, the Potency was inconclusive: 2.24 µM [inhibitor, full curve, poor fit].
In the case of `Cc1ccc(-c2cn3cccnc3n2)cc1NC(=O)c1cccs1`, the Potency is reported as inconclusive: 0.447 µM [inhibitor, partial curve, poor fit].
In the case of `COc1ccccc1N(CC(=O)Nc1ccc(Cc2ccncc2)cc1)S(=O)(=O)c1ccccc1`, the Potency is reported as inconclusive: 8.2 µM [inhibitor, partial curve].
For `COc1ccccc1CN(Cc1nc2ccccc2c(=O)[nH]1)S(=O)(=O)c1ccc(C)cc1`, the Potency was “inactive”.
With `CCOC(=O)Nc1nc2ccc(Cn3cccc3)cc2[nH]1` the Potency was “inactive”.
In the case of `COc1ccc(/C=C/C(=O)c2ccc(C)c([N+](=O)[O-])c2)cc1O`, the Potency is reported as inconclusive: 29.1 µM [inhibitor, single point].
In the case of `CCOc1ccc(Nc2nc(NCC3CCCO3)c3ccccc3n2)cc1` (stereo not drawn), the Potency is reported as inconclusive: 3.16 µM [inhibitor, full curve, poor fit].
For `CCN(CC)CCNC(=O)c1c(O)c2cccc3c2n(c1=O)CCC3`, the Potency was inconclusive: 11.2 µM [inhibitor, partial curve, poor fit].
With `COc1ccc(CCN2CCCC(CN(C)Cc3cc(OC)c(OC)c(OC)c3)C2)cc1` (stereo not drawn) the Potency was inconclusive: 7.94 µM [inhibitor, partial curve, poor fit].
With `Cc1cc(C)c(C#N)c(Cl)n1` the Potency was inconclusive: 0.398 µM [inhibitor, single point].
For `Cc1ccccc1OCc1nnc(SCC(=O)N2c3ccccc3Sc3ccc(Cl)cc32)o1`, the Potency was inconclusive: 1.46 µM [inhibitor, partial curve, poor fit].
For `CSCCC(NC(=O)c1ccccc1Br)C(=O)NC(C)CCc1ccccc1` (stereo not drawn), the Potency was “inactive”.
With `O=C(CCCn1ncn2c(cc3occc32)c1=O)N1CCc2ccccc2C1` the Potency was “inactive”.
In the case of `CCC(C)(C)NC(=O)c1ccc(S(=O)(=O)N2CCCCCC2)cc1`, the Potency is reported as inconclusive: 7.94 µM [activator, partial curve, poor fit].
For `CCOC(=O)C1=C(CNCc2ccc(C)cc2)NC(=O)NC1c1ccc(OC)cc1` (stereo not drawn), the Potency was active: 5.01 µM.
In the case of `Cc1ccc(N2C(=O)N(CC(=O)Nc3ccccc3C)C(=O)C2C)cc1` (stereo not drawn), the Potency is reported as “inactive”.
For `Cc1nc2ccccc2nc(C)c1=NO`, the Potency was “inactive”.
With `Cc1cc(NC(=O)c2c(F)cccc2Cl)n(-c2nc3ccccc3[nH]2)n1` the Potency was inconclusive: 35.5 µM [inhibitor, single point].
For `Cc1ccc(S(=O)(=O)n2nc(-n3c(C)ccc3C)c3c(F)cccc32)c2ccccc12`, the Potency was active: 11.2 µM.
For `Cn1nc([N+](=O)[O-])nc1Sc1nnc(-c2ccccc2)o1`, the Potency was inconclusive: 1.12 µM [inhibitor, single point].
For `CCCc1cc(C(=O)Nc2c(C)nn(Cc3ccc(C)cc3)c2C)no1`, the Potency was inconclusive: 20 µM [inhibitor, single point].
With `Cc1ccc(C)c(NC(=S)NNC(=S)Nc2ccc(C(C)C)cc2)c1` the Potency was inconclusive: 35.5 µM [inhibitor, single point].
With `CCOC(=O)c1c(C)[nH]c(C)c1C(=O)COc1ncnc2ccccc12` the Potency was inconclusive: 11.2 µM [activator, single point].
In the case of `Cc1cc2c3c(c1)C(C)(c1ccccc1)CC(C)(C)N3C(=O)C21C(C#N)=C(N)OC2=C1C(=O)CC(C)(C)C2` (stereo not drawn), the Potency is reported as “inactive”.
With `CC1C/C(=N/Nc2ccc([N+](=O)[O-])cc2[N+](=O)[O-])CC(C)(C)C1` (stereo not drawn) the Potency was inconclusive: 23.1 µM [inhibitor, single point].
With `Cc1ccc(C(=O)/C=C/c2ccc(Br)cc2)o1` the Potency was inconclusive: 20.6 µM [inhibitor, single point].
For `CN(/N=C/c1ccc(N(C)C)cc1)C1=NS(=O)(=O)c2ccccc21`, the Potency was inconclusive: 2.82 µM [inhibitor, full curve, poor fit].
With `CC(=O)NC12CC3CC(C1)CC(C(=O)OCC(=O)Nc1ncc(Cl)cc1Cl)(C3)C2` the Potency was “inactive”.
With `Cc1nc(OCC(=O)c2ccc(Cl)cc2)c(C#N)c2c1COC(C)(C)C2` the Potency was “inactive”.
With `CCOC(=O)c1[nH]c(C)c(/C(O)=C2\C(=O)C(=O)N(CCCN3CCOCC3)C2c2cccs2)c1C` (stereo not drawn) the Potency was inconclusive: 1.12 µM [inhibitor, full curve, poor fit].
With `Cc1ccc(S(=O)(=O)N(C)c2ccc(OCC(=O)NCC3(N(C)C)CCCCC3)cc2)cc1` the Potency was inconclusive: 20 µM [inhibitor, single point].
In the case of `Cn1c(SCC2CCCO2)nnc1-c1ccncc1` (stereo not drawn), the Potency is reported as “inactive”.
For `CCCOc1ccc(CC(=O)NCc2ccco2)cc1OC`, the Potency was inconclusive: 35.5 µM [activator, single point].
For `CCCCn1c(SCC(=O)N(C)C)nnc1-c1ccncc1`, the Potency was inconclusive: 3.98 µM [activator, single point].
With `O=C(NCCCNC(=O)c1cnccn1)c1ccc(Cl)c(Cl)c1` the Potency was “inactive”.
With `Cc1ccc(C(=O)NNC(=S)NC(=O)COc2ccccc2)cc1` the Potency was inconclusive: 16.4 µM [inhibitor, partial curve, poor fit].
For `Cc1nn(Cc2ccc(F)cc2Cl)c(C)c1[N+](=O)[O-]`, the Potency was inconclusive: 2.51 µM [inhibitor, partial curve, poor fit].
In the case of `O=C(OCCCN1CCCC1)C1(c2ccccc2)CCCC1`, the Potency is reported as inconclusive: 23.1 µM [inhibitor, single point].
With `COc1ccc(OC)c2sc(N(CCN(C)C)C(=O)/C=C/c3cccs3)nc12` the Potency was inconclusive: 22.4 µM [inhibitor, partial curve, poor fit].
In the case of `O=C(Nc1nc(SCc2ccc(F)cc2)ns1)c1ccco1`, the Potency is reported as inconclusive: 3.66 µM [activator, full curve, poor fit].
In the case of `O=C(CSc1ncnc2sc3c(c12)CCCCC3)NCc1ccco1`, the Potency is reported as inconclusive: 28.2 µM [inhibitor, single point].
With `O=C1N=C(c2ccccc2)S/C1=C\c1cccs1` the Potency was inconclusive: 35.5 µM [activator, single point].
For `CC(=O)N/N=C/c1c(C)[nH]n(-c2ccccc2)c1=O`, the Potency was “inactive”.
In the case of `Cc1c(NC(=O)c2ccc(Cl)cc2)cc(C(C)C)c(O)c1S(=O)(=O)c1ccc(Cl)cc1`, the Potency is reported as inconclusive: 35.5 µM [inhibitor, single point].
In the case of `O=C(Cn1ccc2ccccc2c1=O)Nc1ccc2c(c1)OCO2`, the Potency is reported as “inactive”.
In the case of `COc1ccc(NC(=O)C(=O)NCCC2CCCCN2S(=O)(=O)c2ccccc2)cc1` (stereo not drawn), the Potency is reported as inconclusive: 1.78 µM [inhibitor, full curve, poor fit].
With `CC(=O)C1=C(C)Nc2cc(C(F)(F)F)ccc2S1` the Potency was inconclusive: 6.31 µM [inhibitor, single point].
In the case of `Cc1ccc(-c2nnc(-c3ccccc3S(=O)(=O)Cc3ccc(Cl)cc3)o2)cc1`, the Potency is reported as “inactive”.
For `Cc1cc(Cl)ccc1OCCCC(=O)N/N=C/c1cccc([N+](=O)[O-])c1`, the Potency was inconclusive: 0.199 µM [inhibitor, full curve, poor fit].
With `COc1ccccc1NC(=O)Cn1c(=O)n(-c2ccc(C)cc2)c(=O)c2ccc(C(=O)NCc3ccco3)cc21` the Potency was inconclusive: 3.16 µM [inhibitor, single point].
For `Cc1c(N=Nc2c(-c3ccc([N+](=O)[O-])cc3)[nH]n(C(N)=S)c2=O)cccc1[N+](=O)[O-]`, the Potency was active: 2.82 µM.
In the case of `N#CCSc1nnc(COc2ccc3ccccc3c2)o1`, the Potency is reported as inconclusive: 0.794 µM [activator, full curve, poor fit].
For `Cc1sc2cc3c(c(C(=O)c4ccccc4)[n+]2c1C)-c1cccc2cccc-3c12`, the Potency was active: 4.47 µM.
For `Cc1cccc2sc(NC(=O)c3cc(S(=O)(=O)N(C)C)ccc3N3CCCC3)nc12`, the Potency was inconclusive: 6.31 µM [inhibitor, single point].
In the case of `NC1=NC(=O)/C(=C/c2cccs2)S1`, the Potency is reported as inconclusive: 4.11 µM [activator, partial curve, poor fit].
With `CNS(=O)(=O)c1cccc(C(=O)OCC(=O)Nc2ccc(-c3nc4ccc(C)cc4s3)cc2)c1` the Potency was inconclusive: 7.08 µM [inhibitor, partial curve, poor fit].
In the case of `Cc1ccc(Nc2c(-c3cc(Br)ccc3F)nc3cc(C)ccn23)cc1`, the Potency is reported as inconclusive: 5.62 µM [inhibitor, partial curve, poor fit].
For `Cc1cc(C)nc(Nc2n[nH]c(COc3ccc4ccccc4c3)n2)n1`, the Potency was inconclusive: 25.9 µM [inhibitor, single point].
With `Cc1ccc(-n2nnnc2/C=C\Nc2cc(C)on2)cc1` the Potency was inconclusive: 29.1 µM [inhibitor, partial curve, poor fit].
For `COc1ccc(C(=O)CCC(C)(C)[N+](=O)[O-])cc1`, the Potency was “inactive”.
